Laboratory results reported in paper PMC7098884.
These are yes or no findings as the source states them, for the method shown. Some entries that bind do so weakly or less than the wild type.

Amino acid sequences for entries named in this document (tags omitted). Residues count along the entry.
UniProt P29317, residues 24-976: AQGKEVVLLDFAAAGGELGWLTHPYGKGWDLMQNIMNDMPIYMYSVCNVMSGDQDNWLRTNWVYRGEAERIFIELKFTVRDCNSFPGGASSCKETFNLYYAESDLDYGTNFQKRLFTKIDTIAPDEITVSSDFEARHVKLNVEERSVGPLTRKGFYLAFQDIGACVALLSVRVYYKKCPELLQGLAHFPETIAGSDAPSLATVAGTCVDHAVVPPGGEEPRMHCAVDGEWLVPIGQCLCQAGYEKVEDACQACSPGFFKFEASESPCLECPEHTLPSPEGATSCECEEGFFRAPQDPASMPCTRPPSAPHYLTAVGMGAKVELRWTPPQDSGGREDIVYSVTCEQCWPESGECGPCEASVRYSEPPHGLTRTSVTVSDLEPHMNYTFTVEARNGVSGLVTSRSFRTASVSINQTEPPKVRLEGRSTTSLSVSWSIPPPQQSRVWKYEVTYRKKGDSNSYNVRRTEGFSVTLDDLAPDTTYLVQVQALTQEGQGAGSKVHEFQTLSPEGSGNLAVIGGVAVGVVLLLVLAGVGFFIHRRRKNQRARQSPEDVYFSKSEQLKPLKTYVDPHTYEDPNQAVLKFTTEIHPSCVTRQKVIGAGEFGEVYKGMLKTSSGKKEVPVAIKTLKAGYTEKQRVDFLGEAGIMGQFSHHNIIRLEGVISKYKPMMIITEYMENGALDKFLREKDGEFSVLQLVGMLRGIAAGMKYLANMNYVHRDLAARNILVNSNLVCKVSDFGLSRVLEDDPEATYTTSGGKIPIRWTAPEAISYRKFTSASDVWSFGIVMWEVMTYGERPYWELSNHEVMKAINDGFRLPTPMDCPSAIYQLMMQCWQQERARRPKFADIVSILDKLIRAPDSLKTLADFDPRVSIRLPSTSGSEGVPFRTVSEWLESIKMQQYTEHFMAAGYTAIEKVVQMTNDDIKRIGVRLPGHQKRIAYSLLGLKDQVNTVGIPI
UniProt P20827, residues 19-182: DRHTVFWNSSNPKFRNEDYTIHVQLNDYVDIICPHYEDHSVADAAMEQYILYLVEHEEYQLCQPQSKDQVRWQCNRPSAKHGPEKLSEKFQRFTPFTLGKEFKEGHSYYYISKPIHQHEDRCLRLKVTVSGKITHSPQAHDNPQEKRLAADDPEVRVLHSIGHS

Molecular target: EPHA2 (human (endogenous in AGS and MKN45)) (UniProt P29317)
Assay: flow cytometry on cells; AGS and MKN45 cells (1 × 10^5) in PBS with 1% BSA stained with Ephrin A1-Fc on ice for 30 min, FITC-conjugated secondary antibody; cells transfected with control or EPHA2 siRNAs (Fig. 4b), or with C1GALT1 siRNA / C1GALT1 knockout (Fig. 6f); only the binder purified

- binding: binds
Substance: soluble Ephrin A1-Fc (from UniProt P20827 19-182) (Fc fusion)
